According to the supplement of paper PMC10470496:
Counter-ions that a name gives are not always drawn. Some of the results follow. Many values rest on one well or one pass, so single values are uncertain.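 The strains were three CDC resistance-bank clinical C. auris isolates from clades III, IV and I, cultured in RPMI-1640 at 35°C. Growth was background-corrected OD600 versus vehicle-only wells on the same plate. A hit needed >50% inhibition in two or more strains plus a plate-corrected B-score exceeding 0.1.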

Experiments:
Assay in all cases: growth relative to vehicle control (OD600 ratio) (fraction); higher = less inhibition
Details in all cases: 24 h
C. auris AR-384 = system: C. auris AR-384
C. auris AR-386 = system: C. auris AR-386
C. auris AR-387 = system: C. auris AR-387

SMILES | growth (C. auris AR-384; 1 µM) | growth (C. auris AR-384; 10 µM) | growth (C. auris AR-386; 1 µM) | growth (C. auris AR-386; 10 µM) | growth (C. auris AR-387; 1 µM) | growth (C. auris AR-387; 10 µM)
O=C(OCc1ccccc1)c1ccccc1 [Benzyl benzoate] | 0.77 | 0.7 | 0.77 | 0.62 | 0.53 | 0.53
Cc1cc(C)c2c(c1)[C@@H](N(Cc1cc(C(F)(F)F)cc(C(F)(F)F)c1)c1nnn(C)n1)CCCN2C[C@H]1CC[C@H](C(=O)O)CC1 | 0.81 | 0.92 | 0.69 | 0.59 | 0.58 | 0.79
Nc1ccn([C@@H]2O[C@H](CO)[C@@H](O)C2(F)F)c(=O)n1 [Gemcitabine] | 1.04 | 1.1 | 0.74 | 0.95 | 0.79 | 1.01
O=C(O)c1cc(O)c(O)c(O)c1 [Gallic acid] | 0.75 | 0.77 | 0.99 | 0.94 | 0.81 | 1.02
CN(C)CCc1c[nH]c2ccc(CS(=O)(=O)N3CCCC3)cc12 [Almotriptan Malate] | 0.79 | 0.84 | 1.05 | 0.97 | 0.97 | 0.56
c1ccc2[nH]c(-c3cscn3)nc2c1 [Thiabendazole] | 1.17 | 0.81 | 0.86 | 1.37 | 1.04 | 0.92
CN(C)CCc1c[nH]c2ccc(C[C@H]3COC(=O)N3)cc12 [Zolmitriptan] | 0.95 | 0.8 | 1 | 0.98 | 0.86 | 0.73
O=C1Cc2cc(CCN3CCN(c4nsc5ccccc45)CC3)c(Cl)cc2N1 [Ziprasidone HCl] | 0.71 | 0.46 | 0.61 | 0.59 | 0.85 | 0.83
COc1cc2ncnc(Nc3ccc(F)c(Cl)c3)c2cc1NC(=O)/C=C/CN1CCCCC1 | 0.72 | 0.92 | 0.77 | 0.99 | 1.06 | 0.88
CC(C)NC[C@@H](O)COc1ccc(CC(N)=O)cc1 [(R)-(+)-Atenolol HCl] | 0.82 | 0.81 | 0.89 | 0.61 | 0.66 | 0.63
C#Cc1cccc(Nc2ncnc3cc(OCCOC)c(OCCOC)cc23)c1 [Erlotinib] | 0.74 | 0.82 | 0.71 | 0.74 | 0.59 | 0.61
Clc1ccc(CSC(Cn2ccnc2)c2ccc(Cl)cc2Cl)cc1 (stereo not drawn) [Sulconazole Nitrate] | 0.53 | 0.37 | 1.1 | 0.57 | 0.12 | 0.01
CC(C)CN(C[C@@H](O)[C@H](Cc1ccccc1)NC(=O)O[C@H]1CO[C@H]2OCC[C@H]21)S(=O)(=O)c1ccc(N)cc1 [Darunavir Ethanolate] | 1.19 | 0.85 | 1.02 | 0.86 | 0.7 | 0.98
Nc1nc2ccc(OC(F)(F)F)cc2s1 [Riluzole] | 0.97 | 1.06 | 1.3 | 1.16 | 0.87 | 0.81
CC(C)(C)NCC(O)c1ccc(O)c(CO)c1 (stereo not drawn) [Salbutamol Sulfate] | 0.8 | 0.85 | 0.87 | 0.82 | 1.1 | 1.06
CCOC(=O)n1ccn(C)c1=S [Carbimazole] | 0.95 | 0.91 | 0.79 | 1.01 | 0.71 | 0.99
COC(=O)C1=C(C)NC(C)=C(C(=O)OC(C)(C)CN(C)CCC(c2ccccc2)c2ccccc2)C1c1cccc([N+](=O)[O-])c1 (stereo not drawn) [Lercanidipine hydrochloride] | 0.98 | 0.83 | 0.83 | 0.52 | 1 | 0.63
CCOC(=O)[C@H](CCc1ccccc1)N[C@@H](C)C(=O)N1Cc2ccccc2C[C@H]1C(=O)O [Quinapril HCl] | 0.86 | 1 | 1.37 | 1.3 | 1.3 | 1.03
Nc1nc2[nH]cc(CCc3ccc(C(=O)N[C@@H](CCC(=O)O)C(=O)O)cc3)c2c(=O)[nH]1 [Pemetrexed] | 1.08 | 1.32 | 0.95 | 1.28 | 1 | 1.18
CCC1(c2c[nH]cn2)Cc2ccccc2C1 [Atipamezole hydrochloride] | 0.83 | 0.73 | 0.87 | 0.82 | 0.9 | 0.74
CN(C)CC(c1ccc(O)cc1)C1(O)CCCCC1 (stereo not drawn) [Desvenlafaxine] | 0.94 | 0.77 | 0.81 | 0.72 | 0.71 | 0.82
C[C@@H](O[C@H]1OCCN(Cc2n[nH]c(=O)[nH]2)[C@H]1c1ccc(F)cc1)c1cc(C(F)(F)F)cc(C(F)(F)F)c1 [Aprepitant] | 1.05 | 1.18 | 0.98 | 1.19 | 0.76 | 1.01
CN[C@H]1CC[C@@H](c2ccc(Cl)c(Cl)c2)c2ccccc21 [Sertraline HCl] | 0.86 | 0.82 | 0.79 | 0.86 | 0.86 | 0.69

Record cards, as listed above. Order of values: growth (C. auris AR-384; 1 µM)	growth (C. auris AR-384; 10 µM)	growth (C. auris AR-386; 1 µM)	growth (C. auris AR-386; 10 µM)	growth (C. auris AR-387; 1 µM)	growth (C. auris AR-387; 10 µM)
`COc1cc2ncnc(Nc3ccc(F)c(Cl)c3)c2cc1NC(=O)/C=C/CN1CCCCC1` is listed with 0.72	0.92	0.77	0.99	1.06	0.88
`CN(C)CCc1c[nH]c2ccc(CS(=O)(=O)N3CCCC3)cc12` [Almotriptan Malate] is listed with 0.79	0.84	1.05	0.97	0.97	0.56
